The assay has as its target T1, CARM1 (human (endogenous in H1299, A549 and PC9)) (UniProt Q86X55).
T1 sequence: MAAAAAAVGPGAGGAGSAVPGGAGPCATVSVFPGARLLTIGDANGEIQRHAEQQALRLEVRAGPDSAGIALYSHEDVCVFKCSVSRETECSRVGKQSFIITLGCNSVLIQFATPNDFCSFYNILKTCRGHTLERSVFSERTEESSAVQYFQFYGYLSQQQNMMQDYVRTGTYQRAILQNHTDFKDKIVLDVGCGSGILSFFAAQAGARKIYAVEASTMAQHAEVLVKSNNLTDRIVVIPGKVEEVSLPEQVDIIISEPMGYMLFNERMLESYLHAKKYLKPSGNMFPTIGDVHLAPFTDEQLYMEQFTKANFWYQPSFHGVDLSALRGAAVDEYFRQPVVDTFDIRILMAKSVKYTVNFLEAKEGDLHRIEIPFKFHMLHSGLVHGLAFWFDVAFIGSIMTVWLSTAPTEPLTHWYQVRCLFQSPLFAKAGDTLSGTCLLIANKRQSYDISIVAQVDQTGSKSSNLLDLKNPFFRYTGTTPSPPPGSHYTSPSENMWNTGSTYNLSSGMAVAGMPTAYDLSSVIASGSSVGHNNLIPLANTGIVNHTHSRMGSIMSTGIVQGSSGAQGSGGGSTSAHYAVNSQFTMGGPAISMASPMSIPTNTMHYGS
The assay is described as follows: co-IP; Co-IP in A549 cells to confirm the interaction between CARM1 and HDAC3; which protein was precipitated is not told.

The chains behind the UniProt entries cited, without tags or fusion partners.
UniProt O15379: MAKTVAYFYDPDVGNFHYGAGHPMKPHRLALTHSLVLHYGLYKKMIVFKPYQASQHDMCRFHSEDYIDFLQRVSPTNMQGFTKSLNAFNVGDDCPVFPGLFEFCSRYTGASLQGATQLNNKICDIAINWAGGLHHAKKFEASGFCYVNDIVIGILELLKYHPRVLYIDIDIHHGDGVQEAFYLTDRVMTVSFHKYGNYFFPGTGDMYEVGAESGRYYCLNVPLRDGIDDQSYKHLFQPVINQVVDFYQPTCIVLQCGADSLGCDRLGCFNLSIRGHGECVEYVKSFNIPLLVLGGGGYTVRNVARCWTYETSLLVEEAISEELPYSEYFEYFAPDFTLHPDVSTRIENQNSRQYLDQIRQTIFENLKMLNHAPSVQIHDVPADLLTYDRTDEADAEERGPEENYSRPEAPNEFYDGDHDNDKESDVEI

No constants are given. Whether binding was seen depends on the method and setting. Binding seen in cells or lysates may run through a third protein. Some entries that bind do so weakly or less than the wild type.

Turning to HDAC3 (from UniProt O15379 1-428), the binding result was “binds”.

These data come from paper PMC9077876.
